According to US20120302624A1:
Results are given in words; binding and its absence hold for the method and conditions named. Binding seen in cells or lysates may run through a third protein. Some results given as binding are weak or reduced against the parent protein; the word gives no strength. Sequences can lack the tags named with a protein.

B1: GST-TOPK (enzyme, UniProt Q96KB5 1-322, looked up, not shown: a dimerising Fc or GST)
chain: MEGISNFKTPSKLSEKKKSVLCSTPTINIPASPFMQKLGFGTGVNVYLMKRSPRGLSHSPWAVKKINPICNDHYRSVYQKRLMDEAKILKSLHHPNIVGYRAFTEANDGSLCLAMEYGGEKSLNDLIEERYKASQDPFPAAIILKVALNMARGLKYLHQEKKLLHGDIKSSNVVIKGDFETIKICDVGVSLPLDENMTVTDPEACYIGTEPWKPKEAVEENGVITDKADIFAFGLTLWEMMTLSIPHINLSNDDDDEDKTFDESDFDDEAYYAALGTRPPINMEELDESYQKVIELFSVCTNEDPKDRPSAAHIVEALETDV
B2: Flag-TOPK-WT (Flag-tagged wild-type T-lymphokine-activated killer cell-originated protein kinase, expressed from pCMV2-Flag-TOPK (WT)) (enzyme, UniProt Q96KB5 1-322, looked up, not shown: small tags and cut ends)
chain: B1 chain

Tests used:
H2AX [1] = target: H2AX (UniProt P16104); test: GST pull-down, LC/Mass/Mass
H2AX [2] = target: H2AX (UniProt P16104); test: GST-TOPK pull-down from asynchronized and M phase arrest HeLa cells, LC/Mass/Mass
H2AX [3] = target: H2AX (UniProt P16104); test: co-immunoprecipitation of Flag-TOPK with M2 beads from transfected cells, immunoblotting
H2AX [4] = target: H2AX (UniProt P16104); test: co-immunoprecipitation from M phase cell lysates
H2AX [5] = target: H2AX (UniProt P16104); test: co-immunoprecipitation with M2 beads from transfected H1299 cells (nocodazole M phase arrest against asynchronized), immunoblotting

| Binder | binding (H2AX [1]) | binding (H2AX [2]) | binding (H2AX [3]) | binding (H2AX [4]) | binding (H2AX [5]) |
| --- | --- | --- | --- | --- | --- |
| B1 | binds | binds |  |  |  |
| B2 |  |  | binds | binds | binds |
